Laboratory results reported in patent US8624002B2, “Prostaglandin E2 binding proteins and uses thereof” (AbbVie, Inc., priority 2008, dated 2014).
The name of at least one read-out is uncertain.

Experiment: Pharmacokinetics of 2B5.8.0 in Balb/C mice
Type: in vivo
Details: intraperitoneal, both sexes
Description: Pharmacokinetic studies with mouse mAb 2B5.8.0 were carried out in Sprague Dawley rats and Balb/C mice. Male and female rats and mice were dosed intravenously or intraperitoneally (mice only) with a single dose of 4 mg/kg 2B5.8.0 and serum samples were analyzed using antigen capture based chemiluminescent MSD (Meso Scale Discovery) method (Meso Scale Discovery, Gaithersburg, Md.). Pharmacokinetic parameters were calculated by non-compartmental analysis using WinNonlin.
The following MSD assay was used to measure antibody concentration in rat and mouse serum. […]
After incubation, the MSD plates were washed, and 70 μL of sulfo-tagged goat anti-mouse IgG (Meso Scale Discovery; diluted to 1 ug/mL in assay buffer) was added to each well. The MSD plates were covered, and incubated with shaking (600 rpm) for 1 hour at room temperature, then the plates were washed and developed with 2× Read Buffer (Meso Scale Discovery). Chemilumeniscence was measured within ten minutes on the MSD Sector Imager 6000.
Standard curves were analyzed using four-parameter logistic fit and sample concentrations were calculated by XLfit4 software version 2.2.1 Build 16, ([…].). Pharmacokinetic parameters were calculated for each animal using Winonlin software version 5.0.1 (Pharsight Corporation, Mountain View, Calif.) by noncompartmental analysis. […]

B1: 2B5-8.0: recombinant anti-PGE2 antibody from solved 2B5 sequence; VH SEQ ID NO 42, VL SEQ ID NO 43 (antibody, V domains shown)
VH: QVQLQQSGPELVRPGSSVKISCKASGYTFTKYWLGWVKQRPGHGLEWIGDIYPGYDYTHYNEKFKDKATLTVDTSSSTAYMQLSSLTSEDSAIYYCARSDGSSTYWGQGTLVTVSA
VL: DVLMTQTPLSLPVSLGDQASISCTSSQNIVHSNGNTYLEWYLQRPGQSPKLLIYKVSNRFSGVPDRFSGSGSGTVFTLKISRVEAEDLGVYYCFQVSHVPYTFGGGTKLEIKR
time at which Cmax is reached: 1 to 2 days
